# Source: PubChem BioAssay AID686943 (Drosophila RNAi Screening Center, 2013)
# Screen: 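Fly genes whose loss alters ERK activation after insulin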 (primary screen)
# Cell system: Drosophila S2R+ haemocyte-like cells expressing YFP-tagged ERK (Rolled)
# Reagents: long dsRNA against Drosophila genes
# Treatment: insulin stimulation versus unstimulated cells; dose and duration not given
# Measurement: 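Antibody staining for doubly phosphorylated ERK divided by ERK-YFP signal, as plate z-scores, in insulin-treated and untreated cells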
# Reading the numbers: replicate 1, z-score of dpERK with insulin and replicate 2, z-score of dpERK with insulin: higher = more active ERK per ERK-YFP after insulin; replicate 1, z-score of dpERK under basal conditions: higher = more basal active ERK per ERK-YFP; replicate 1, z-score of ERK-YFP with insulin: higher = more YFP-tagged ERK signal
# In all, the deposit lists about 23,000 reagents; below is a random part of those with a known target gene and a result. 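Extra replicates exist only for a retested subset of genes; insulin dose and duration not given; both raised and lowered dpERK matter.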 The numbers tell different reagents against one gene apart. Names joined by + are all predicted targets of the reagent. The record does not give: the amount of reagent, the time to read-out.
Gene,dsRNA no.,"replicate 1, z-score of dpERK with insulin","replicate 2, z-score of dpERK with insulin","replicate 1, z-score of dpERK under basal conditions","replicate 1, z-score of ERK-YFP with insulin"
CG42755 (retired record),1,0.55,0.3,-0.56,0.09
CG42755 (retired record),2,0.25,0.35,-0.09,0.32
CG14273,1,1.98,0.89,0.19,-1.42
Oatp33Eb,1,-0.05,0.63,-4.36,0.53
MICAL-like,1,0.12,0.6,-0.51,0.07
Jon74E,1,-0.3,-0.06,0.81,-0.28
Antp,1,-2.04,0.37,0.95,-3.15
CG8012,1,0.7,0.61,-0.64,0.39
Pli,1,-0.07,-0.21,0.23,0.86
Dpck,1,-1.46,-0.33,-0.98,-0.12
CG10359,1,0.6,-0.06,0.47,0.01
Afti,1,-0.55,0.55,0.51,1.06
Sps1,1,-1.9,-2.03,-1.25,0.77
Rx,1,0.4,0.26,0.16,0.73
Rx,2,1.01,0.52,1.63,-0.44
CG15139 (retired record),1,0.6,0.09,-1.15,0.92
Unc-115b + p24-2,1,0.05,-0.29,0.7,-0.34
CG14450,1,-1.07,-1.37,0.45,2.01
Tim17b1,1,0.98,0.51,-0.69,-0.22
na,1,-1.41,0.22,-0.62,-0.11
CG15296,1,-0.87,-0.15,-0.13,0.66
RpL39,1,-2.63,-2.2,-2.65,-3.29
SKIP,1,-0.49,-0.09,-0.68,0.97
SKIP,2,-0.23,-0.48,-0.38,-0.11
SKIP,3,1.24,0.34,-2.59,0.55
SKIP,4,0.04,-0.2,0.07,0.28
SKIP,5,0.3,-0.21,-0.34,-0.49
